Data as given in patent US20220184052A1, “COMPOSITION COMPRISING FEXOFENADINE” (Cellix Bio Private Limited, priority 2020, published 2022).
Structures can show the parent of a compound that is named as a salt.

Assay: Observations during formulation development (crystallisation, RC-A impurities, viscosity)
Assay type: physicochemical
Conditions: depending upon the solvent used
Text: During experimentation, it could also be noted that when PEG-400 is used as one of the solvent, it results in higher amounts of RC-A impurities. When propylene glycol (PG) is used in place of PEG-400, it affords dramatic reduction of RC-A impurities as compared to PEG-400.

CC(C)(C(=O)O)c1ccc(C(O)CCCN2CCC(C(O)(c3ccccc3)c3ccccc3)CC2)cc1 (stereo not shown) [API, Fexofenadine HCl]
Polymorphic nature / conversion into crystalline form: tendency to convert into crystalline form
